Experimental data from the supplement of paper PMC10849652.
The list shows a part of the results.

The chains behind the UniProt entries cited, without tags or fusion partners. Where a name states a change or a piece, a line headed by the entry shows the natural chain unless it says otherwise.
UniProt Q96L58: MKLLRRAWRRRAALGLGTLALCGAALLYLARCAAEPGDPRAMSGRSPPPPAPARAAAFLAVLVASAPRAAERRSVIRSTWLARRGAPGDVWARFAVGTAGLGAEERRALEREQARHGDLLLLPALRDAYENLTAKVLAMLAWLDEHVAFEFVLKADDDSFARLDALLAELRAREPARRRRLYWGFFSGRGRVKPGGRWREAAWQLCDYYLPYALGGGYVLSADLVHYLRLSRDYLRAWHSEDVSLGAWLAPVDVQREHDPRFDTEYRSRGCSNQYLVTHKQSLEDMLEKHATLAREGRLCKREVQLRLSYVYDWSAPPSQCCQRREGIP
UniProt Q93088: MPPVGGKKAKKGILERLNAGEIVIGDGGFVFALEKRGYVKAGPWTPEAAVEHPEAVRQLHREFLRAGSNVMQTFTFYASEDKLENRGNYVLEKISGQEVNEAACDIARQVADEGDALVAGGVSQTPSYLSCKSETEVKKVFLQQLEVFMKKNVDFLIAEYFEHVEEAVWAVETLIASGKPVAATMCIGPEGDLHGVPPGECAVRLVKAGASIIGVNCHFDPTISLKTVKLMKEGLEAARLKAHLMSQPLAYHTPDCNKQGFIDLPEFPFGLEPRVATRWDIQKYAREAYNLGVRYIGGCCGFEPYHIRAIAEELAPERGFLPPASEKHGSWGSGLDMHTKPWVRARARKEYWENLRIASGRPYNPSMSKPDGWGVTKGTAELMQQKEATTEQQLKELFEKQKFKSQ
UniProt P46100: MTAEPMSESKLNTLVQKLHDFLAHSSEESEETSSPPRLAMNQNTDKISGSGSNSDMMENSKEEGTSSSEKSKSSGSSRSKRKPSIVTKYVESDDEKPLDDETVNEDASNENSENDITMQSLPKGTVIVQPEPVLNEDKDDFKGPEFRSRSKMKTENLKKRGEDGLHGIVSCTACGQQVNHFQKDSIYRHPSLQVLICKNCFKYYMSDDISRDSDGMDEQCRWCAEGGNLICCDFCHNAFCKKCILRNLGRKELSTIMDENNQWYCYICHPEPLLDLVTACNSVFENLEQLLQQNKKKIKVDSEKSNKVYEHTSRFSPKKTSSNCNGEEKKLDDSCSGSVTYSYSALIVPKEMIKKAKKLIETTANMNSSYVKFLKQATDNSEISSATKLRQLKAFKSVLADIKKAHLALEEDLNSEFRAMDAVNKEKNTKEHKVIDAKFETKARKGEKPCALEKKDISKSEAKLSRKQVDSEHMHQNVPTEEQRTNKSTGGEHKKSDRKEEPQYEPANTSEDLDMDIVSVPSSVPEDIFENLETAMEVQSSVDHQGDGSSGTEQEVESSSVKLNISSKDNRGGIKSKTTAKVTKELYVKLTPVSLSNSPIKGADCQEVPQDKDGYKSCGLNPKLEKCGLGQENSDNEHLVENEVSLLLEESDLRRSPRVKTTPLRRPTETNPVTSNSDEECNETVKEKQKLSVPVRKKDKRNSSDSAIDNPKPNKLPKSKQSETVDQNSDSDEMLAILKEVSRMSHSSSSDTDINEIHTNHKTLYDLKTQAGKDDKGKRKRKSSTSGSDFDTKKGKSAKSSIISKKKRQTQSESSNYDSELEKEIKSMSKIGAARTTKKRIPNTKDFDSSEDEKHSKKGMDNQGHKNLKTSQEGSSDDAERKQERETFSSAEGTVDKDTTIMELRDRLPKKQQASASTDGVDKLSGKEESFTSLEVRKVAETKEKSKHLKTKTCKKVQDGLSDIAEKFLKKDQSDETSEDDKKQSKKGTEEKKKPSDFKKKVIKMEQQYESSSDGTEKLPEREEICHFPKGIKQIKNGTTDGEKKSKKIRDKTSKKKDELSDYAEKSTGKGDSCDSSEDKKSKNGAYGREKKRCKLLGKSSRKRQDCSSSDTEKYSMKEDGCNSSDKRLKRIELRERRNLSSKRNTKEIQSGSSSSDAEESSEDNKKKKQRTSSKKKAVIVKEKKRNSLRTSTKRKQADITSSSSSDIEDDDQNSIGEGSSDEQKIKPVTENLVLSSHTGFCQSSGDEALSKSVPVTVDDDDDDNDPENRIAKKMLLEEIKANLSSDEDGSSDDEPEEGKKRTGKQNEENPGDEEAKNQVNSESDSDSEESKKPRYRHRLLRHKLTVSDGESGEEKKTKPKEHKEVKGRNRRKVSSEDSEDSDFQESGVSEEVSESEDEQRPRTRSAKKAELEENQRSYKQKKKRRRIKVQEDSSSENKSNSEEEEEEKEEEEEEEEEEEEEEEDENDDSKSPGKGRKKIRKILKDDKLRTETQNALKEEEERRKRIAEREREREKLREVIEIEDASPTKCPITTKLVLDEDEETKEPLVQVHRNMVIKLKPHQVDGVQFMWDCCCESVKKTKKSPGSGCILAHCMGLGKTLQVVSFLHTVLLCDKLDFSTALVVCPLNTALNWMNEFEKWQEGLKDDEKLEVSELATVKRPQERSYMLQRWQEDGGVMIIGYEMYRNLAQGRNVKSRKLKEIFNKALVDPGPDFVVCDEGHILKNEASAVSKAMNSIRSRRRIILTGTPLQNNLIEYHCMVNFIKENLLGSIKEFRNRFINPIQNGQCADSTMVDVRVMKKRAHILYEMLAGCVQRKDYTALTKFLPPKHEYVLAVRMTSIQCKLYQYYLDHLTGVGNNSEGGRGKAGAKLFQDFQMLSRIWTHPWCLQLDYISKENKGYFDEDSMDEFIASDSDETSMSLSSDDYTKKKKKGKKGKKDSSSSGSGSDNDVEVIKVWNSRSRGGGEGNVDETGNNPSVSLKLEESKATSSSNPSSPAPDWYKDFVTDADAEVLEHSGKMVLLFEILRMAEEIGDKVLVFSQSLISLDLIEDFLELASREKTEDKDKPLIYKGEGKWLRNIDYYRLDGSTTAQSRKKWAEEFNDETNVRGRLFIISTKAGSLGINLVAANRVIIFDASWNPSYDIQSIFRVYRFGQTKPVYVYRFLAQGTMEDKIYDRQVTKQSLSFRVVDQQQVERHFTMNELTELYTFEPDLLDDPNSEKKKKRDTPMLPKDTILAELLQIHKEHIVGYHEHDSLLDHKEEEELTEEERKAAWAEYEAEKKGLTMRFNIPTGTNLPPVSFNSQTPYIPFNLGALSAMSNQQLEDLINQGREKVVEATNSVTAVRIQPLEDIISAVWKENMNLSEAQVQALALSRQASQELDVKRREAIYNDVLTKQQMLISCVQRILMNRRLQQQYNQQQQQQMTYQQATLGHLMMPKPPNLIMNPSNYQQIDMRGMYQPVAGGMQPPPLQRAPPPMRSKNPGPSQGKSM
UniProt Q9H6S1, whole entry, looked up: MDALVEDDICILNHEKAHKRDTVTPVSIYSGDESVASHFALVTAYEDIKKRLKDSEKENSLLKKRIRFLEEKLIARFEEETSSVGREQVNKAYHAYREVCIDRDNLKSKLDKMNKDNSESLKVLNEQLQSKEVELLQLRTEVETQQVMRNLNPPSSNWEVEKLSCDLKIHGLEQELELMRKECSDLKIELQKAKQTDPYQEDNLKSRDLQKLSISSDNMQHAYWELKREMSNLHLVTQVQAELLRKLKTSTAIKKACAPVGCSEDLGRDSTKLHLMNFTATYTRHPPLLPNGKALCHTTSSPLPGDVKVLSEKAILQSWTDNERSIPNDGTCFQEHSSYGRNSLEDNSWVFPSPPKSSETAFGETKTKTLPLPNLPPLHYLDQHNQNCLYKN
UniProt O60513: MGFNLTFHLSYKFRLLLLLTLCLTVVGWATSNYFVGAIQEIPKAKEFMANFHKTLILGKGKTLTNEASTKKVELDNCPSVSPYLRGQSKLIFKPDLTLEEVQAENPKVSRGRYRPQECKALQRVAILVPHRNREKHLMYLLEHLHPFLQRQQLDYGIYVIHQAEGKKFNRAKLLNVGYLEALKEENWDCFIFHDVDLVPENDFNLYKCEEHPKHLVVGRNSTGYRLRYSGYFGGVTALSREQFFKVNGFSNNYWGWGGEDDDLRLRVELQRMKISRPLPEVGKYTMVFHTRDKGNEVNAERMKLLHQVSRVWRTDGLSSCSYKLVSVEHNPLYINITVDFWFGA
UniProt O43505: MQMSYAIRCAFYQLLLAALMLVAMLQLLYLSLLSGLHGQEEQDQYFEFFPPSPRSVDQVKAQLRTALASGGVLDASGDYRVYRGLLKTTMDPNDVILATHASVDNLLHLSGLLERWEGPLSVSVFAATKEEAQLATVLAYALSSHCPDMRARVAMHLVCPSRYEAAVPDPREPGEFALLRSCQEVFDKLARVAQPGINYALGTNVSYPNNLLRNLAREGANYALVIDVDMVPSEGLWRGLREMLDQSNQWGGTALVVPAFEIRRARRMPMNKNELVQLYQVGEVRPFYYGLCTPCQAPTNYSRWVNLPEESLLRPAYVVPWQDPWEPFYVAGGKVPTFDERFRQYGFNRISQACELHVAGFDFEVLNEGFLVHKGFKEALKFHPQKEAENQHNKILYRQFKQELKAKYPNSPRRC
UniProt Q9BQE9, whole entry, looked up: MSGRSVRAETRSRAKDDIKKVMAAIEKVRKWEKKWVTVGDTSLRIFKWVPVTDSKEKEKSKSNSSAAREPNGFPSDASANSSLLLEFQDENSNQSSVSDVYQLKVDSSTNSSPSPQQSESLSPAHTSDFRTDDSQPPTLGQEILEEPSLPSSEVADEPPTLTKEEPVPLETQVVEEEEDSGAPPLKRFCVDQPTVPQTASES
UniProt Q9H7T9: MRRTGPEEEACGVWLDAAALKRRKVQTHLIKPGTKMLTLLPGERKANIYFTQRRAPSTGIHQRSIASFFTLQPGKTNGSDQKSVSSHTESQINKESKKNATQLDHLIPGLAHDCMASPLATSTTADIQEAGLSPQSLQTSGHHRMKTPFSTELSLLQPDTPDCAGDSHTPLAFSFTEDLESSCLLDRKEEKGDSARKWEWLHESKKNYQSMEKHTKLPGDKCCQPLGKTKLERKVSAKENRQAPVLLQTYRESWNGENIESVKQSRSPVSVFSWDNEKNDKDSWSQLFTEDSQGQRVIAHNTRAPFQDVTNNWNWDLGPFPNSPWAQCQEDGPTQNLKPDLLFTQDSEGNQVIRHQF
UniProt Q9NQS1: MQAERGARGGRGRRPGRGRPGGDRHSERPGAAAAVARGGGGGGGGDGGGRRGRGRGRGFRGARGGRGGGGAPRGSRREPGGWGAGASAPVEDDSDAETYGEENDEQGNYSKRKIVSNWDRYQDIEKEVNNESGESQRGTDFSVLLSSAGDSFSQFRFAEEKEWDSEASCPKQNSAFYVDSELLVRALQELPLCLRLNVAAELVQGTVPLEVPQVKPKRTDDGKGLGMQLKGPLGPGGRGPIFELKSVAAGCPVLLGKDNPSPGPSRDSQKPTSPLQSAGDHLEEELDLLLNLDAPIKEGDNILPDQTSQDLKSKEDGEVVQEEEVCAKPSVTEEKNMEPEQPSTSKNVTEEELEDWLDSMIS
UniProt Q96GD4, whole entry, looked up: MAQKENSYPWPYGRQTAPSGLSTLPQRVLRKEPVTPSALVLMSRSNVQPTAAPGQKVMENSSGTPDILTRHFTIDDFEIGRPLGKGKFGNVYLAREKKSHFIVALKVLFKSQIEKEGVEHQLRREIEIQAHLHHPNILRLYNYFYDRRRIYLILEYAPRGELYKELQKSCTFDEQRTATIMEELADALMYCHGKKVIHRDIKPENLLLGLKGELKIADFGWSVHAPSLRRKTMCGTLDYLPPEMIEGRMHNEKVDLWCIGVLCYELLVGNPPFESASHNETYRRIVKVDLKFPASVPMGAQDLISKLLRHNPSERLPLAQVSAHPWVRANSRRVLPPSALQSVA
UniProt O15169, whole entry, looked up: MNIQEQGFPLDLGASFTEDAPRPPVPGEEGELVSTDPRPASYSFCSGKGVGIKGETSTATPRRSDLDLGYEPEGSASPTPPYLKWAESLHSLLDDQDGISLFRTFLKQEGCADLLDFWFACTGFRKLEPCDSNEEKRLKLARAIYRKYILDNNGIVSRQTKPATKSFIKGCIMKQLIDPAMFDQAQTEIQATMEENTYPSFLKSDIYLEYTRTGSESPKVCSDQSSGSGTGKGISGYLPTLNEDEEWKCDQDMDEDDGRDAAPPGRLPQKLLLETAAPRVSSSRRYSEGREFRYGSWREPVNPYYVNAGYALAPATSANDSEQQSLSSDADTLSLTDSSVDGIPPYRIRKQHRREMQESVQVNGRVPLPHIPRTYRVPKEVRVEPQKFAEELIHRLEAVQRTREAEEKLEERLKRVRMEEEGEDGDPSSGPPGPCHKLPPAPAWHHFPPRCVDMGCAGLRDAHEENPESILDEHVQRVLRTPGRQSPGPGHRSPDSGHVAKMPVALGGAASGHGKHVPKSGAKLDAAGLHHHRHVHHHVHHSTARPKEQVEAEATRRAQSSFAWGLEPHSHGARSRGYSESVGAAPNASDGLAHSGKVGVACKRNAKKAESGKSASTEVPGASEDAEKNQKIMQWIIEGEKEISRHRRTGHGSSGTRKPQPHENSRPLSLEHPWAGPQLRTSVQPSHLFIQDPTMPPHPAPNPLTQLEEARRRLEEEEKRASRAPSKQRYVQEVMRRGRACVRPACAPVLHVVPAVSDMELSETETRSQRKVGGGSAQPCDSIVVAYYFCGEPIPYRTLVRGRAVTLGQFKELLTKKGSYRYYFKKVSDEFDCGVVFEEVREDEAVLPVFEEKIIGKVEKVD

How the values were obtained:
Test in all cases: log2 fold change, soluble protein after heating vs DMSO (PISA); higher = thermal stabilisation; K562 cells, 10 uM, 30 min; active = over 0.2 and 3.5 SD of the protein, either way, in both replicates (recomputed)
[1] = compound: C[C@@H]1COCCN1C2=NC(=NC(=C2)C3(CC3)S(=O)(=O)C)C4=C5C=CNC5=CC=C4
How it was run: (§1)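 Aliquots of K562 cells (2×10^6 cells/mL) treated with 10 μM compound for 30 min were heated for 3 min over 48°C-58°C. After pooling and extraction in PBS with 0.5% NP-40 at 4°C, soluble protein from a 21,000xg, 90 min spin was quantified by TMTpro 16plex LC-MS/MS with channel sums equalised. Thermal stability is expressed against control samples, from duplicates, as a log2 fold change.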

[2] = compound: C[C@H](C1=CC=C(C=C1)C(=O)NC2=C3C=CNC3=NC=C2)N
How it was run: as §1

[3] = compound: Cc1cc(Nc2cc(CN3CCOCC3)c3nc(C)c(Cc4ccc(Cl)cc4F)n3n2)n[nH]1 [gandotinib]
How it was run: as §1

[4] = compound: Cc1cc(SCc2sc(-c3ccc(C(F)(F)F)cc3)nc2C)ccc1OCC(=O)O
How it was run: as §1

[5] = compound: C[C@@H](Oc1cc(-c2cnn(C3CCNCC3)c2)cnc1N)c1c(Cl)ccc(F)c1Cl [crizotinib]
How it was run: as §1

[6] = compound: Cc1ccc(-n2nc(C(C)(C)C)cc2NC(=O)Nc2ccc(OCCN3CCOCC3)c3ccccc23)cc1 [doramapimod]
How it was run: as §1

[7] = compound: Cc1ccc(C(=O)N(CCCN)[C@@H](c2nc3cc(Cl)ccc3c(=O)n2Cc2ccccc2)C(C)C)cc1 [ispinesib]
How it was run: as §1

[8] = compound: CS(=O)(=O)c1ccc(-c2cnc(N)c(C(=O)Nc3ccccc3)n2)cc1
How it was run: as §1

[9] = compound: Cc1cc(Nc2cc(N3CCN(C)CC3)nc(Sc3ccc(NC(=O)C4CC4)cc3)n2)n[nH]1 [tozasertib]
How it was run: as §1

[10] = compound: C[C@H](Nc1ncnc2nc[nH]c12)c1cc2cccc(Cl)c2c(=O)n1-c1ccccc1 [duvelisib]
How it was run: as §1

Measured: log2 fold change

BSCL2 isoform 4 (UniProt Q96G97)
inactive: [1] 0.05 | [2] -0.007 | [3] -0.086 | [4] 0.111

B3GALT6 (UniProt Q96L58)
inactive: [5] 0.183 | [6] -0.05 | [7] -0.09

BFAR (UniProt Q9NZS9)
inactive: [1] 0.046

BNIP3 (UniProt Q12983)
inactive: [8] -0.144 | [1] -0.117 | [3] -0.169 | [9] -0.023 | [7] -0.147

BHMT (UniProt Q93088)
inactive: [8] 0.165 | [10] -0.226 | [4] -0.057

BCDIN3D (UniProt Q7Z5W3)
inactive: [2] -0.103 | [9] -0.037

AUH (UniProt Q13825)
inactive: [5] -0.301 | [2] -0.105 | [3] -0.127 | [4] 0.135 | [6] 0.071 | [7] -0.069

BOD1 (UniProt Q96IK1)
inactive: [3] -0.069 | [7] 0.204

BPNT1 (UniProt A6NF51)
inactive: [5] -0.03 | [1] -0.046 | [9] 0.004 | [6] 0.059 | [7] -0.084

BBC3 (UniProt Q9BXH1)
inactive: [5] 0.259 | [1] -0.049 | [2] -0.039 | [10] 0.115 | [3] -0.003 | [9] 0.015 | [4] 0.015 | [6] -0.052 | [7] 0.044

2 records drawn at random from those above:
BCDIN3D (UniProt Q7Z5W3)
inactive: [2] -0.103 | [9] -0.037

BPNT1 (UniProt A6NF51)
inactive: [5] -0.03 | [1] -0.046 | [9] 0.004 | [6] 0.059 | [7] -0.084

(cont.)

BEX4 (UniProt Q9NWD9)
inactive: [8] -0.184 | [2] -0.023 | [10] 0.019 | [4] 0.172

BCAS3 isoform 8 (UniProt Q9H6U6)
inactive: [5] 0.034 | [2] -0.049 | [10] -0.062 | [3] 0.006 | [9] 0.024 | [4] 0.034 | [6] 0.093

BRMS1 (UniProt Q9HCU9)
inactive: [1] -0.034 | [3] -0.174 | [4] -0.046

ATRX (UniProt P46100)
inactive: [2] 0.255 | [3] -0.037

BAP18 isoform 3 (UniProt Q8IXM2)
inactive: [3] 0.147

BORCS8 (UniProt Q96FH0)
inactive: [9] -0.003 | [7] 0.087

AZI2 (UniProt Q9H6S1)
inactive: [8] 0.074 | [7] -0.019

BRD4 (UniProt O60885)
inactive: [8] 0.081 | [1] 0.288 | [2] -0.009 | [3] -0.034 | [4] -0.044 | [7] -0.022

BCL7A isoform 2 (UniProt Q4VC05)
inactive: [8] -0.09 | [1] 0.028 | [9] -0.004

ATXN3 isoform 1 (UniProt P54252)
inactive: [5] -0.028 | [2] 0.076 | [3] -0.028 | [6] 0.087 | [7] -0.043

BLZF1 (UniProt Q9H2G9)
inactive: [8] -0.204 | [2] -0.089

ATXN7L2 (UniProt Q5T6C5)
inactive: [1] 0.067

BRAF, A0A2R8Y8E0
active: [6] -0.757
inactive: [5] 0.262 | [7] -0.223

BORCS7 (UniProt Q96B45)
inactive: [5] 0.075 | [2] -0.127 | [10] 0.196 | [3] 0.21 | [9] -0.003 | [4] -0.022 | [6] 0.04

ATXN2 (UniProt F8W0B5)
inactive: [8] -0.061 | [2] -0.014 | [10] 0.041 | [3] -0.226 | [4] -0.024 | [7] 0.01

B4GALT4 (UniProt O60513)
inactive: [8] -0.014 | [3] 0.249 | [7] 0.133

B4GAT1 (UniProt O43505)
inactive: [5] 0.041 | [1] 0.042 | [2] 0.196 | [10] 0.052 | [3] 0.349 | [9] -0.054 | [4] -0.031 | [6] -0.085 | [7] -0.006

BCL7B (UniProt Q9BQE9)
inactive: [5] 0.337 | [2] 0.02 | [10] -0.048 | [4] -0.013 | [6] -0.06

AURKA (UniProt O14965)
active: [3] 1.01
inactive: [8] 0.198 | [1] -0.251 | [2] 0.066 | [4] -0.013 | [6] 0.051 | [7] -0.107

BLVRA (UniProt C9J1E1)
inactive: [5] -0.422 | [2] 0.137 | [10] 0.007 | [3] -0.036 | [4] -0.018 | [6] -0.081

AUNIP isoform 2 (UniProt Q9H7T9)
inactive: [8] 0.117 | [2] -0.007 | [4] 0.056

AZIN1 (UniProt O14977)
inactive: [7] -0.012

AVEN (UniProt Q9NQS1)
inactive: [1] 0.189 | [2] 0.147 | [10] 0.142 | [3] -0.029 | [4] 0.146

AURKB isoform 5 (UniProt Q96GD4)
inactive: [10] -0.123 | [9] 1.11 | [4] -0.032

AXIN1 (UniProt O15169)
inactive: [3] -0.016

ATXN2L (UniProt H3BUF6)
inactive: [5] -0.023 | [3] 0.279 | [6] 0.092 | [7] -0.005

BAHD1 (UniProt Q8TBE0)
inactive: [3] -0.126

BNIP3L (UniProt O60238)
inactive: [5] -0.185 | [2] -0.059 | [10] 0.313 | [9] -0.061 | [4] -0.085 | [6] -0.133 | [7] -0.214

BAIAP2 isoform 4 (UniProt Q9UQB8)
inactive: [8] -0.112 | [2] 0.29

BCL2L12 (UniProt Q9HB09)
inactive: [1] 0.094 | [2] -0.013 | [10] -0.162 | [3] -0.095 | [4] 0.135 | [7] -0.174
